The source of these data is paper PMC10857193.

Protein sequences, listed by entry. Tags and fused reporters are not part of them. Lines headed by an entry give the natural chain unless they say otherwise; changes in a name come on top.
UniProt Q9FMP5: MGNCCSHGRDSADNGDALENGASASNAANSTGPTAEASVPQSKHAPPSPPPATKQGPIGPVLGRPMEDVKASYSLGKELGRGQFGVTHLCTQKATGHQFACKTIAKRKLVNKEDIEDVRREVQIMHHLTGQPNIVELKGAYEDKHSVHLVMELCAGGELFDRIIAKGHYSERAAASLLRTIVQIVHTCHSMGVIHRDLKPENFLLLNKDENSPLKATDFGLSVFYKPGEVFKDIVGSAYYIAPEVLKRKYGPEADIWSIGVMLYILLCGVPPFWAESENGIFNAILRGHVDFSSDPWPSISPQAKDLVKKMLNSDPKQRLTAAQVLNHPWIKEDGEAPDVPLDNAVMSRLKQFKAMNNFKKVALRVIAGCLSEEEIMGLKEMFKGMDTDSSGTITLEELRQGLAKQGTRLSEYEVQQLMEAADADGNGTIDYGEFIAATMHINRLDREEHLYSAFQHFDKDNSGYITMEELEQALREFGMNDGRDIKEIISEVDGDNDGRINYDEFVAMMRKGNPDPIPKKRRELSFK
UniProt A0A0S0N4U0: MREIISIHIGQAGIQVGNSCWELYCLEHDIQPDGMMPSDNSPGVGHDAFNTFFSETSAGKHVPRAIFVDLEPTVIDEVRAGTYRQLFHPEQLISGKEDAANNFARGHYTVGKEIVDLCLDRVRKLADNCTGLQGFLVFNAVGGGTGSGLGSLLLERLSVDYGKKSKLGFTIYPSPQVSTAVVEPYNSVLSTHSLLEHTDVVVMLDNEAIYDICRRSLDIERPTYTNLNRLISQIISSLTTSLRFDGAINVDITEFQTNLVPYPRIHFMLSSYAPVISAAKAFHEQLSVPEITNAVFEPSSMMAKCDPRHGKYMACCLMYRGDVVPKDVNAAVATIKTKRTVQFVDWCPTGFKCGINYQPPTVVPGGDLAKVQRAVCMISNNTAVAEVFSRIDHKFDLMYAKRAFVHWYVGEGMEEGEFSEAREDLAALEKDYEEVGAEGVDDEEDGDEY
UniProt A0A1S3XWB5: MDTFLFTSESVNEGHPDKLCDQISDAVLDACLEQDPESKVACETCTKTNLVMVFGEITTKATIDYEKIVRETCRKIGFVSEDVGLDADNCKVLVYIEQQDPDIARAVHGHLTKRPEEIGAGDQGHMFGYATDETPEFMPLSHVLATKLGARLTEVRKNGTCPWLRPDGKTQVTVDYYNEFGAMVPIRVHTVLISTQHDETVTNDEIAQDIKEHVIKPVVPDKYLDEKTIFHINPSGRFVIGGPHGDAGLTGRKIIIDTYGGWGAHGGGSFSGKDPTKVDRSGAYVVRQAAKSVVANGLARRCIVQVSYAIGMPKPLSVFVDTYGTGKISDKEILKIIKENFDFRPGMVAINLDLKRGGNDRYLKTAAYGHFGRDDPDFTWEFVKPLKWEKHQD
UniProt A0A1S3Z926: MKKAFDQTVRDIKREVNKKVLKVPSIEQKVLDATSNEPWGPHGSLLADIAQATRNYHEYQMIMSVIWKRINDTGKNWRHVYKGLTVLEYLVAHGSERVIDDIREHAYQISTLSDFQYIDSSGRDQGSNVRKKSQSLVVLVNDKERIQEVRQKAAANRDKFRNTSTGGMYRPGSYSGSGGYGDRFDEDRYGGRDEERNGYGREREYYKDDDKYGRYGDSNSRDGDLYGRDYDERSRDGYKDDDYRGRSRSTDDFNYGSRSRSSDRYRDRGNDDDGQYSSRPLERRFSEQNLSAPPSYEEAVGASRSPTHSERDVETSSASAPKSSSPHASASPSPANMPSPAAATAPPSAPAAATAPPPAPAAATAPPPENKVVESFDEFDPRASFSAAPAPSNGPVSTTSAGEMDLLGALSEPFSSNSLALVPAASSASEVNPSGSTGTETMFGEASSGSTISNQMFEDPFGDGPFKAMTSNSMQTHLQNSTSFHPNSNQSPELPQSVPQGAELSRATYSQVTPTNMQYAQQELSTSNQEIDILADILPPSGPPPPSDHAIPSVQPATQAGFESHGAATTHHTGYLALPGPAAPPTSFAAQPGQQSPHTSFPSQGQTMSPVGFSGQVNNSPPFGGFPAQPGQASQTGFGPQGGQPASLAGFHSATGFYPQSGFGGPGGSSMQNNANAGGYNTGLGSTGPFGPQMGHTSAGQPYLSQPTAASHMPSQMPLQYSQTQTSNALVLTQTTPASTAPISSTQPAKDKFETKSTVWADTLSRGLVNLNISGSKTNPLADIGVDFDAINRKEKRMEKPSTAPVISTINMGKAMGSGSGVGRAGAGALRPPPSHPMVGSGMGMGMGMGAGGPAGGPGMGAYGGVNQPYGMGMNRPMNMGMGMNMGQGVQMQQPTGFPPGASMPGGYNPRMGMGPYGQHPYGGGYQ
UniProt A0A1S4AFS9: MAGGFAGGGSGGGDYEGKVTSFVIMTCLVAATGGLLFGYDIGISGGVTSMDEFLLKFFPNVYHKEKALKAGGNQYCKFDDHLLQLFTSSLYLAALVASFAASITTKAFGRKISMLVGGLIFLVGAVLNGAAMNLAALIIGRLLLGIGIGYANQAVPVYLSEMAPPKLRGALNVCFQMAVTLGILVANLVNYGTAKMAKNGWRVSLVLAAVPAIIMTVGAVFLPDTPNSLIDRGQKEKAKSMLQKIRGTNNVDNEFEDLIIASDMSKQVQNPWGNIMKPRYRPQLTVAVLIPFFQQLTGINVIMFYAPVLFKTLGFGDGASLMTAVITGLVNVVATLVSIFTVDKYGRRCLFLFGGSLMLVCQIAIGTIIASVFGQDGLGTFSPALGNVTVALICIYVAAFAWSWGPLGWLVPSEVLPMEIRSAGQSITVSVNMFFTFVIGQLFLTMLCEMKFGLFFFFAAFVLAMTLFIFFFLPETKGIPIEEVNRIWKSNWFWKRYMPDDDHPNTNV
UniProt A0A1S4CMX7: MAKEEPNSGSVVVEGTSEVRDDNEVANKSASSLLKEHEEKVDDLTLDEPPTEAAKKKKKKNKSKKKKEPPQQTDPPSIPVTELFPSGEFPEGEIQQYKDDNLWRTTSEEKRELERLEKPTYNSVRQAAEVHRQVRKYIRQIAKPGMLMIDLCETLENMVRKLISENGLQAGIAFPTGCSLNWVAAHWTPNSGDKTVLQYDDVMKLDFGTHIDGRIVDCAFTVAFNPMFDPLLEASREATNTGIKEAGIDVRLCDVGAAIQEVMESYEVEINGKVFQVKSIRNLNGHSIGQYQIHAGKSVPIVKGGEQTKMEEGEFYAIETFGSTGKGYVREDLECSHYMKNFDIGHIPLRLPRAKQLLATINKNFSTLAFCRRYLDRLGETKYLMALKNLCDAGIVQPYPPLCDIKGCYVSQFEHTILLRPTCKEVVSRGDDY
UniProt A0A1S4CPM1: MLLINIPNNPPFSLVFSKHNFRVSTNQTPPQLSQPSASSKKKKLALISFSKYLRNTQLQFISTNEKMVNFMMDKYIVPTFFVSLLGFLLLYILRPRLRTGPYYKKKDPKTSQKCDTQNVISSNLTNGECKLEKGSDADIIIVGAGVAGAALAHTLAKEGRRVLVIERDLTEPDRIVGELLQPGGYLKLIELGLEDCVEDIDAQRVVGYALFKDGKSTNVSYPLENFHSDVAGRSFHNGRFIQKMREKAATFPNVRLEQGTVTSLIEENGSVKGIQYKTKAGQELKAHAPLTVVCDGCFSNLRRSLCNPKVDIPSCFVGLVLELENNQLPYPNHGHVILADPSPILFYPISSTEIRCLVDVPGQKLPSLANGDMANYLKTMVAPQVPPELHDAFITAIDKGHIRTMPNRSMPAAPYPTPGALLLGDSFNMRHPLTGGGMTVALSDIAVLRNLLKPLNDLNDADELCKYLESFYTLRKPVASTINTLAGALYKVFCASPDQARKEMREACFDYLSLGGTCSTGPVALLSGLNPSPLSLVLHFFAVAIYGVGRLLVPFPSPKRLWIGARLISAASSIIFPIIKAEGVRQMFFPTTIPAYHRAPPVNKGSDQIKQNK
UniProt A0A024AYA4: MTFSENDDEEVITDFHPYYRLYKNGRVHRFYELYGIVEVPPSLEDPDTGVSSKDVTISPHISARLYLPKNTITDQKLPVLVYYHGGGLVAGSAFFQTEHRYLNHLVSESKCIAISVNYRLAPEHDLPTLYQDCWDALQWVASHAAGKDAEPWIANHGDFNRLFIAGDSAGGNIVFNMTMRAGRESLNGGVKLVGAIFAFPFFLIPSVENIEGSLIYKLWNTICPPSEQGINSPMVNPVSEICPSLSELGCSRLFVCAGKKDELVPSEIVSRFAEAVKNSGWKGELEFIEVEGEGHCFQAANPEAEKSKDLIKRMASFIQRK

No constants are given. Whether binding was seen depends on the method and setting. Binding seen in cells or lysates may run through a third protein. Here binding means that the protein was enriched with, or labelled near, the bait; the list need not be complete.

B1: N. tabacum A0A1S4AKF1 (homolog of Magnesium Transporter 2) (protein, UniProt A0A1S4AKF1 1-445)
chain: MADLKERLLPPKPASAANLREVAFRPPASGRQPFQGIDVLGLKKRGQGLRSWIRVDTSGNSQVIEVDKFTMMRRCDLPARDLRLLDPLFVYPSTILGREKAIVVNLEQIRCIITADEVLLLNSLDSYVLQYVVELQRRLQAAGAGDVWQPEGDLSRRRGSRNLENMFGTPSPDYLPFEFRALEVALEAACTFLDSQAAELEIEAYPLLDELTSKISTLNLERVRRLKSRLVALTRRVQKVRDEIEQLMDDDGDMAEMYLTEKKRRMELSCYGDQSLLGYRSTDGALSVSAPVSPVSSPPESRRLEKSLSIARSRHESMRSSESGAETQSIEELEMLLEAYFVVIDSTLNKLTSLKEYIDDTEDFINIQLDNVRNQLIQFELLLTTATFVVAIFGVVAGIFGMNFEIPMFNQPDAFKWVLIITGVTGAVIFFAFLWFFKYRRLMPL
B2: NtGF14 (protein, UniProt Q75ZD6 1-258)
chain: MASPREENVYMAKLAEQAERYEEMVEFMEKVVAAADGAEELTVEERNLLSVAYKNVIGARRASWRIISSIEQKEESRGNEDHVASIKEYRSKIETELTSICNGILKLLDSKLIGAAATGDSKVFYLKMKGDYHRYLAEFKTGAERKEAAENTLSAYKSAQDIANTELAPTHPIRLGLALNFSVFYYEILNSPDRACNLAKQAFDEAIAELDTLGEESYKDSTLIMQLLRDNLTLWTSDMQDDGTDEIKEAAKPDNEQQ
B3: N. tabacum A0A1S4C178 (homolog of Magnesium Transporter 7) (protein, UniProt A0A1S4C178 1-372)
chain: MKTGVSRSWILVDSKGESSILDLDKYAIMKRVPIHARDLRILDPLLSYPSAILGREKAIVLNLEHIKAIITTDEVLLRDPLDDNVAPVVEELQRRLPLPAIAFGEGEDDDQPAVNGARTEMQNVEPTEFPFEFRALEVALEGVCSYLDTQTRELETAAYPALDELTSKISSRNLDRVRKLKSAMTRLTSRVQKVRDDLEQLLEDDDDMADLYLSRKVAGASSPLSGQGALYWSPDSPKLLSKTSKISGLTQEETDVEELEMLLEAYFVQIESTMNKLTTLREYIDDTEDYINIQLDNHRNQLIQLELFLSSGTVCLTVYSLVAAIFGMNIPYPWKKDHGYIFKWVVMLAGIASASIFLSIISYARHKGLVGS

The target in the assay is PiCDPK1:GFP (Petunia) (UniProt Q9FMP5). Briefly: affinity purification with mass spectrometry; GFP-trap magnetic beads capture PiCDPK1:GFP from cleared lysate of germinated transgenic N. tabacum pollen; 2 h at 4 °C; 25 mM HEPES pH 7.4, 10 mM MgCl2, 100 mM NaCl, 10% glycerol, 1 mM DTT, 1 mM CaCl2, 1% Triton-X 100; three washes; on-bead trypsin digestion, LC-MS/MS; control pollen expressing GFP alone; hits filtered (>=2 of 3 replicates, >1.75-fold enrichment, >1 unique peptide, plasma membrane or cytosol).
In the case of “N. tabacum A0A0S0N4U0 (homolog of Tubulin alpha-3) (from UniProt A0A0S0N4U0)”, the binding entry was “binds”.
To “N. tabacum A0A1S3XWB5 (homolog of S-adenosylmethionine synthetase 3) (from UniProt A0A1S3XWB5)” belongs “binds”; to “N. tabacum A0A1S3Z926 (homolog of Epsin 3) (from UniProt A0A1S3Z926)”, “binds”.
To “N. tabacum A0A1S4AFS9 (homolog of Sugar Transport Protein 10) (from UniProt A0A1S4AFS9)” belongs “binds”; to “N. tabacum A0A1S4CMX7 (homolog of Methionine aminopeptidase 2b) (from UniProt A0A1S4CMX7)”, “binds”; to “N. tabacum A0A1S4CPM1 (homolog of Squalene epoxidase 3) (from UniProt A0A1S4CPM1)”, “binds”.
The entry for “N. tabacum A0A024AYA4 (homolog of Carboxyesterase 13) (from UniProt A0A024AYA4)” is “binds”; for B1 it is “binds”; for B2 it is “binds”.
With B3, the binding result was “binds”.
